In the supplement of paper PMC4635364 one finds neuronal differentiation score data, which are given here for 38 compounds.

Counter-ions that a name gives are not always drawn. Some of the results follow. Single values are uncertain here, since repeats match poorly.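 Human fetal ventral-midbrain neural progenitor line ReNCell VM, differentiated without mitogens. Images stained for doublecortin (early neurons) or tyrosine hydroxylase (dopaminergic neurons) were scored by blinded raters against untreated wells (0 = no change). Repeats and both raters were averaged, and compounds averaging 2 or higher were picked as hits for retesting.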 Where a SMILES comes first, the peptide text is derived from it. Bridges are numbered along the chain shown (N, C = ends). [ ]: non-standard residue; d: D form. The star is where a group is joined. Ileψ(thiazoline)Cys = CC[C@H](C)[C@H](N)C1=N[C@H](C(=O)*)CS1; dOrn = NCCC[C@@H](N)C(=O)O

The subject of the first assay is ReNCell VM. Briefly: neuronal differentiation score (DCX+ cell fraction vs untreated, manual image score) (score (-3 to 3)); higher = more neuronal differentiation. The conditions noted are these: library: LOPAC; 2 uM; 2 weeks.
As for `NCCS` [Cysteamine hydrochloride], the neuronal differentiation score is inactive: 1.
With `CCN(CC)CCNC(=O)c1ccc(NC(C)=O)cc1` [N-Acetylprocainamide hydrochloride], the neuronal differentiation score was active: 2.
For the compound `NC(N)=NC(N)=Nc1ccccc1` [1-Phenylbiguanide], the neuronal differentiation score is inactive: 0.

Staying with this assay, now noted: library: Prestwick; 2 uM; 2 weeks.
As to `Nc1nc(=O)[nH]cc1F` [Flucytosine], the neuronal differentiation score was inactive: 0.
On the same count and under the same terms, in the case of `CCN(CCCc1ccccc1)CCCc1ccccc1` [Alverine citrate salt] it was inactive: 0; in that of `Cc1nnc(SCC2=C(C(=O)O)N3C(=O)[C@@H](NC(=O)Cn4cnnn4)[C@H]3SC2)s1` [Cefazolin sodium salt], inactive: 0; in that of `CCN(CC)Cc1cc(Nc2ccnc3cc(Cl)ccc23)ccc1O` [Amodiaquin dihydrochloride dihydrate], inactive: 0.
With `CC(=O)O[C@H]1C(=O)[C@@]2(C)[C@H]([C@H](OC(=O)c3ccccc3)[C@]3(O)C[C@H](OC(=O)[C@H](O)[C@@H](NC(=O)c4ccccc4)c4ccccc4)C(C)=C1C3(C)C)[C@]1(OC(C)=O)CO[C@@H]1C[C@@H]2O` [Paclitaxel], the neuronal differentiation score was inactive: 0.
Take `CCN1CCCC(OC(=O)C(c2ccccc2)c2ccccc2)C1` (stereo not drawn) [Piperidolate hydrochloride]: the neuronal differentiation score was inactive: 0.
For the compound `CC[C@H](C)[C@H](N)C1=N[C@H](C(=O)N[C@@H](CC(C)C)C(=O)N[C@H](CCC(=O)O)C(=O)N[C@H](C(=O)N[C@H]2CCCCNC(=O)[C@H](CC(N)=O)NC(=O)[C@@H](CC(=O)O)NC(=O)[C@H](Cc3cnc[nH]3)NC(=O)[C@@H](Cc3ccccc3)NC(=O)[C@H]([C@@H](C)CC)NC(=O)[C@@H](CCCN)NC2=O)[C@@H](C)CC)CS1` [Bacitracin] ({Ileψ(thiazoline)Cys}-L[dE]IK[dOrn]I[dF]H[dD]N; lactam 4-C), the neuronal differentiation score was inactive: 0.
Still for that read-out and setting: the same measure for `CCC(NC(C)C)C(O)c1ccc(O)c(O)c1` (stereo not drawn) [Isoetharine mesylate salt]: inactive: 0.
On the same count and under the same terms, the same measure for `CCc1cccc(CC)c1NC(=O)CN(CC(=O)O)CC(=O)O` [Etifenin]: inactive: 0; for `N=C(N)NS(=O)(=O)c1ccc(N)cc1` [Sulfaguanidine]: inactive: 0.
Still for that read-out and setting: the same measure for `COc1ccc2c(c1)N(C[C@H](C)CN(C)C)c1ccccc1S2` [Methotrimeprazine maleat salt]: inactive: 0.

The same assay, now with this note: library: Spectrum; 2 uM; 2 weeks.
Regarding `OC[C@H]1O[C@@H](O[C@H]2[C@H](O)[C@@H](O)[C@@H](O)O[C@@H]2CO)[C@H](O)[C@@H](O)[C@@H]1O`, the neuronal differentiation score was inactive: 0.
On the same count and under the same terms, the same measure for `N[C@@H](CSCSC[C@H](N)C(=O)O)C(=O)O`: inactive: 0; for `CCc1ccc2c(O)c3c(cc2c1C(=O)OC)C(=O)c1c(O)ccc(O)c1C3=O`: inactive: 0.
Regarding `C[C@@H]1CC[C@@]2(OC1)O[C@H]1C[C@H]3[C@@H]4CC[C@H]5C[C@@H](O)CC[C@]5(C)[C@H]4CC[C@]3(C)[C@H]1[C@@H]2C`, the neuronal differentiation score was inactive: 0.
As for `COC(=O)C(OC)=C(OC)c1ccccc1OC`, the neuronal differentiation score is inactive: 0.
`CO[C@H]1[C@H](O)[C@@H](O)[C@H](O)[C@H](O)[C@H]1O`: the neuronal differentiation score is inactive: 0.
Regarding `CC[n+]1c(-c2ccccc2)c2cc(N)ccc2c2ccc(N)cc21`, the neuronal differentiation score is inactive: 0.
In the case of `N[C@@H](C(=O)N[C@@H]1C(=O)N2C(C(=O)O)=C(Cl)CS[C@H]12)c1ccccc1`, the neuronal differentiation score was inactive: 0.
As for `CN1CCN(CC(=O)N2c3ccccc3C(=O)Nc3cccnc32)CC1`, the neuronal differentiation score is inactive: 0.
Consider `Clc1ccc(COC(Cn2ccnc2)c2ccc(Cl)cc2Cl)c(Cl)c1` (stereo not drawn), for which the neuronal differentiation score is inactive: 0.
`C[C@@H]1CC[C@@]2(OC1)O[C@H]1C[C@H]3[C@@H]4CC[C@@H]5C[C@@H](O)CC[C@]5(C)[C@H]4CC[C@]3(C)[C@H]1[C@@H]2C`: the neuronal differentiation score is inactive: 0.
Turning to `COc1cc(OC)c(-c2c(OC)cc(OC)cc2OC)c(OC)c1`, the neuronal differentiation score was inactive: 0.
`Clc1ccccc1CN1CCc2sccc2C1`: the neuronal differentiation score was inactive: 0.
As for `NNC(=O)c1ccncc1`, the neuronal differentiation score was inactive: 0.
The same measure, in the same setting: the same measure for `N[C@@H](CCC(=O)N[C@@H](CS)C(=O)NCC(=O)O)C(=O)O`: inactive: 0; for `CN1CCCN=C1/C=C/c1cccs1`: inactive: 0.
Regarding `CC(=O)Nc1nnc(S(N)(=O)=O)s1`, the neuronal differentiation score is inactive: 0.
`CC(=O)O[C@]1(C)CC[C@@]23C[C@H]1C(C)(C)[C@@H]2CC[C@H]3C`: the neuronal differentiation score was inactive: 0.
In the case of `CC1(C)O[C@H]2CC(=O)OC[C@]23[C@H]2CC[C@@]4(C)[C@H](c5ccoc5)OC(=O)[C@H]5O[C@]54[C@]2(C)C(=O)C[C@@H]13`, the neuronal differentiation score is inactive: 0.
Regarding `COC(=O)c1c(C)cc(O)cc1O`, the neuronal differentiation score was inactive: 0.

The same assay, now with this note: library: Tocriscreen; 2 uM; 2 weeks.
As to `NS(=O)(=O)c1cccc2c1c([N+](=O)[O-])cc1nc(O)c(O)nc12`, the neuronal differentiation score is inactive: 0.
On to `O=[N+]([O-])c1cccc2c[nH]nc12`, for which the neuronal differentiation score is inactive: 0.
Turning to `CCC(=O)NC[C@H](Cc1ccc(OCCc2nc(-c3ccccc3)oc2C)cc1)N/C(C)=C\C(=O)c1ccc(C(F)(F)F)cc1`, the neuronal differentiation score is inactive: 0.
As to `Cc1ccc(/C=C2\CNC/C(=C\c3ccc(C)cc3)C2=O)cc1`, the neuronal differentiation score is inactive: 0.
